Results taken from patent US20200095296A1, “USE OF PEPTIDES AS BIOMARKERS IN THE DIAGNOSIS, CONFIRMATION AND TREATMENT OF A NEUROLOGICAL DISORDER AND TCR AND/OR HLA IMMUNOPROFILING IN NEURODEGENERATIVE DISEASE” (THE TRUSTEES OF COLUMBIA UNIVERSITY IN THE CITY OF NEW YORK, priority 2017, published 2020).
Results are given in words; binding and its absence hold for the method and conditions named. Some entries that bind do so weakly or less than the wild type.

Target: HLA A*11:01 (human)
Experiment: competition with radiolabeled peptide, purified HLA A*11:01

B1: alpha-syn peptide aa37…aa45 (peptide)
peptide: VLYVGSKTK
binding: binds
